Results are given in words; binding and its absence hold for the method and conditions named. In cells and extracts the contact can be indirect. Some results given as binding are weak or reduced against the parent protein; the word gives no strength. For some assays here: Tags and fused reporters may be left off the sequences shown.
What was measured:
[1] = target: GFP-tagged murine FAK wildtype (focal adhesion kinase) (murine) (UniProt P34152); test: co-IP; polyclonal anti-FAK antibody, overnight at 4°C, protein A Plus agarose; lysates of three FAK-WT and three FAK-KD MDA-MB-231 orthotopic tumors; immunoblot for B23
[2] = target: T1, GFP-NS (green fluorescent protein tagged human nucleostemin) (human) (UniProt Q9BVP2); test: co-IP; anti-GFP antibody, overnight at 4°C, protein A Plus agarose; lysates of MDA-MB-231 cells transfected with GFP or GFP-NS; immunoblot for GFP, mTOR, FAK and Akt
T1 sequence: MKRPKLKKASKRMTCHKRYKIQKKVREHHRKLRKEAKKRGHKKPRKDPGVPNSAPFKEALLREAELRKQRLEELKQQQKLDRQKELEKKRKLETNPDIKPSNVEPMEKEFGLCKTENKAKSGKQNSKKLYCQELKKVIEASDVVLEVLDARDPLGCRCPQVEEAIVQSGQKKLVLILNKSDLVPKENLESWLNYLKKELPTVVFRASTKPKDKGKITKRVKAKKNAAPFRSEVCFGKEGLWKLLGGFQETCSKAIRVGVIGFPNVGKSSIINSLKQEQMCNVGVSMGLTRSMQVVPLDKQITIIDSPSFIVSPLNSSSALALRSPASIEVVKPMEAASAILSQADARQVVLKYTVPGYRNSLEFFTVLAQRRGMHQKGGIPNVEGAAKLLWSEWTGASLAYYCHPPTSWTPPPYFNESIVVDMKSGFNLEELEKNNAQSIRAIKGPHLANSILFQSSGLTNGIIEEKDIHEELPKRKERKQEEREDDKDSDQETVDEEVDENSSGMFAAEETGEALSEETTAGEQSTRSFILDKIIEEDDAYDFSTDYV

By UniProt entry, the sequences of proteins in these tests, tags left out.
UniProt P34152: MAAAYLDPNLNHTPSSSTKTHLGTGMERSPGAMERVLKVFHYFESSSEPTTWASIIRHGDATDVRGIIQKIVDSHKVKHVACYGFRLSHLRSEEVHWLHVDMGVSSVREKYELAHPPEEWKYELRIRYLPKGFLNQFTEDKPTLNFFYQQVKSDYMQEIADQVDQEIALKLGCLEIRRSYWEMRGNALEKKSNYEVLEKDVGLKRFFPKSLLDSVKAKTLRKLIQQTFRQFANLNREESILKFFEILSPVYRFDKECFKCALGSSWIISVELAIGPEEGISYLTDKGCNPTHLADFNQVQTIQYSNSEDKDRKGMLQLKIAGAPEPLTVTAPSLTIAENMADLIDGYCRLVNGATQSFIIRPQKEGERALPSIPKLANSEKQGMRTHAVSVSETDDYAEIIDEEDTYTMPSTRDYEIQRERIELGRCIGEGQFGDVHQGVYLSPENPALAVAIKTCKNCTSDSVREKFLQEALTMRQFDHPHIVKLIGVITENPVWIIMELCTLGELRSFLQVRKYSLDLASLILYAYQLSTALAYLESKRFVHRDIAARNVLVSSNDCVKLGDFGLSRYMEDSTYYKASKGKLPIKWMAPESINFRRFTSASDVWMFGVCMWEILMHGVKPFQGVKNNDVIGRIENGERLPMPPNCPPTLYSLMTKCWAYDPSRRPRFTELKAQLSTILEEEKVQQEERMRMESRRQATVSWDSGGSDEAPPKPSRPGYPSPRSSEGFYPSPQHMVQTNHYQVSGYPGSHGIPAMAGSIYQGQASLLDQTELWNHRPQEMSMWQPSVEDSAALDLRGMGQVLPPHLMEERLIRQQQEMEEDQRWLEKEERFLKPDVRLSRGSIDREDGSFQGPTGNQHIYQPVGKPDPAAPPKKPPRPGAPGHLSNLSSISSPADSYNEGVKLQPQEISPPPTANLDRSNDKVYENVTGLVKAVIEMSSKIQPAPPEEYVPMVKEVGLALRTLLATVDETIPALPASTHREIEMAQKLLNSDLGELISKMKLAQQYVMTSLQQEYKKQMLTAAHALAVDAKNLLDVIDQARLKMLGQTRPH
UniProt P06748: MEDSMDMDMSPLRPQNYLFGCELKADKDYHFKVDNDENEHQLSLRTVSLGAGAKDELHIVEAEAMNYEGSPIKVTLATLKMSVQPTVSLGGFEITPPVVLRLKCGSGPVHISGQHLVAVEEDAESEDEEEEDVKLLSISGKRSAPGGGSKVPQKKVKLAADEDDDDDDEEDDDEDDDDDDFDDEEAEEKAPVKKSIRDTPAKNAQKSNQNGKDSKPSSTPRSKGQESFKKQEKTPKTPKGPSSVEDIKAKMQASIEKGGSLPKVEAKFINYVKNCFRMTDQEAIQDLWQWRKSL
UniProt Q05397: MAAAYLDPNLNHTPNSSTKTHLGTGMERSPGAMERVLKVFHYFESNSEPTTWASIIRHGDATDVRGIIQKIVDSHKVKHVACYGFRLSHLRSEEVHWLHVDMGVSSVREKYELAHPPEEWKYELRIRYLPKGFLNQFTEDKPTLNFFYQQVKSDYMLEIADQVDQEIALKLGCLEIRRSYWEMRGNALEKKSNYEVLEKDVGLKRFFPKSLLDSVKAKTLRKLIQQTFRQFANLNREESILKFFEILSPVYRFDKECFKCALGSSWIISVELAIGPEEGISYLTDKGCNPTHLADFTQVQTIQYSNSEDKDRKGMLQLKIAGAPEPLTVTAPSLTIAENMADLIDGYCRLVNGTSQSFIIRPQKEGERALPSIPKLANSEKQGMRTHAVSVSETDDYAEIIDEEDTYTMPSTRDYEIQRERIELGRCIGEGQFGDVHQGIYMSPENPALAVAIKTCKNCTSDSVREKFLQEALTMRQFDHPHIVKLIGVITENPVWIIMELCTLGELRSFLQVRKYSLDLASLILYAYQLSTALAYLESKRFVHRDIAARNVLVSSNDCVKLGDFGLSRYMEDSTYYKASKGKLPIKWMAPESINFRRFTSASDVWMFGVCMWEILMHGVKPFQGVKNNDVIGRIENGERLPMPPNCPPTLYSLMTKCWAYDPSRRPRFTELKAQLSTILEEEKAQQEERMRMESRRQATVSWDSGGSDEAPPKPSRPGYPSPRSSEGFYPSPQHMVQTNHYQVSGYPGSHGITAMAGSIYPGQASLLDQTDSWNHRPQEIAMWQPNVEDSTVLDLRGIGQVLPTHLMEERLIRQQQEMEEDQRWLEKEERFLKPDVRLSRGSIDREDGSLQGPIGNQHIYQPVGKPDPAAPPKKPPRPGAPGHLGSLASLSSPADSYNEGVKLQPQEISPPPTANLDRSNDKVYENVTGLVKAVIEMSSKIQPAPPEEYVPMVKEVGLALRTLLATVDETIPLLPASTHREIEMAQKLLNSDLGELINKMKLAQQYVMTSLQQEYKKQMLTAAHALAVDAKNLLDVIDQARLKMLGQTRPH

Substance | binding [1] | binding [2]
nucleolar phosphoprotein B23 (nucleophosmin) (from UniProt P06748 1-294) | binds | 
focal adhesion kinase (FAK), endogenous (from UniProt Q05397 1-1052) (enzyme) |  | binds

From article PMC4407832
